# Assay results taken from ChEMBL document CHEMBL4513139, “CO-ADD screening of University of Strathclyde (UK) compounds”.
# The list shows a part of the results. Results with a measured potency or affinity are listed apart.
# Tested on: Pseudomonas aeruginosa
# Conditions: Concentration 32 ug.mL-1; ASSAY_TEST Inhibition of Bacterial Growth; detection method Absorption (OD600); MEDIA CAMHB; plate type 384well; NBS; CORNING #3640; time 18 hr
row,SMILES,Inhibition [%]
1,CCOP(=O)(OCC)C(Cc1cn(Cc2cnc(C)nc2N)nn1)C(=O)O.O=C(O)C(F)(F)F (stereo unspecified),-21.05
